Reference: US9163040B2, “Substituted bisphenyl butanoic phosphonic acid derivatives as NEP inhibitors” (NOVARTIS AG, priority 2013, dated 2015)
At least one compound was matched to its structure with a doubt left. Some compounds share one wording; it may come from a single statement.

System: plasma ANP
Test: ANP potentiation model
Type: in vivo, rat
Details: conscious rats infused with ANP 450 ng/kg/min i.v.; compound p.o.; rise within 0.5-1 hr, elevated for the duration of the experiment

Compound	effect on plasma ANP concentrations (in words)
CCOC(=O)C[C@@H](Cc1ccc(-c2cc(Cl)ccc2F)cc1)NC(=O)CCC(=O)O [Example 1-17 (WO2010/136493)]	dose-dependently increased plasma ANP concentrations
CCOC(=O)C[C@@H](Cc1ccc(-c2cccc(Cl)c2)cc1)NC(=O)CCC(=O)O [Example 1-2 (WO2010/136493)]	dose-dependently increased plasma ANP concentrations
